# Results published in article PMC9066168 (RSC Advances, 2019).
# System: Candida albicans (MTCC 227)
# Test: Minimum inhibitory concentration, agar dilution method
# Format: cell-based
# Settings: MTCC227, 24 h, read-out: Minimum inhibitory concentration, C. albicans
structure (smiles),measurement,value
C[C@@H]1[C@H](O)[C@@H](C)/C=C/C=C/C=C/C=C/C=C/C=C/C=C/[C@H](O[C@@H]2O[C@H](C)[C@@H](O)[C@H](N)[C@@H]2O)C[C@@H]2O[C@](O)(C[C@@H](O)C[C@@H](O)[C@H](O)CC[C@@H](O)C[C@@H](O)CC(=O)O[C@H]1C)C[C@H](O)[C@H]2C(=O)O [Amphotericin B],MIC,0.1 µg/mL
